# ± gives the standard deviation of the averaged measurements. The entries are a selection whose mix differs from that of the whole data set.
# By UniProt entry, the sequences of proteins in these tests, tags left out. Where a name states a change or a piece, a line headed by the entry shows the natural chain unless it says otherwise.
# UniProt Q9P2E3: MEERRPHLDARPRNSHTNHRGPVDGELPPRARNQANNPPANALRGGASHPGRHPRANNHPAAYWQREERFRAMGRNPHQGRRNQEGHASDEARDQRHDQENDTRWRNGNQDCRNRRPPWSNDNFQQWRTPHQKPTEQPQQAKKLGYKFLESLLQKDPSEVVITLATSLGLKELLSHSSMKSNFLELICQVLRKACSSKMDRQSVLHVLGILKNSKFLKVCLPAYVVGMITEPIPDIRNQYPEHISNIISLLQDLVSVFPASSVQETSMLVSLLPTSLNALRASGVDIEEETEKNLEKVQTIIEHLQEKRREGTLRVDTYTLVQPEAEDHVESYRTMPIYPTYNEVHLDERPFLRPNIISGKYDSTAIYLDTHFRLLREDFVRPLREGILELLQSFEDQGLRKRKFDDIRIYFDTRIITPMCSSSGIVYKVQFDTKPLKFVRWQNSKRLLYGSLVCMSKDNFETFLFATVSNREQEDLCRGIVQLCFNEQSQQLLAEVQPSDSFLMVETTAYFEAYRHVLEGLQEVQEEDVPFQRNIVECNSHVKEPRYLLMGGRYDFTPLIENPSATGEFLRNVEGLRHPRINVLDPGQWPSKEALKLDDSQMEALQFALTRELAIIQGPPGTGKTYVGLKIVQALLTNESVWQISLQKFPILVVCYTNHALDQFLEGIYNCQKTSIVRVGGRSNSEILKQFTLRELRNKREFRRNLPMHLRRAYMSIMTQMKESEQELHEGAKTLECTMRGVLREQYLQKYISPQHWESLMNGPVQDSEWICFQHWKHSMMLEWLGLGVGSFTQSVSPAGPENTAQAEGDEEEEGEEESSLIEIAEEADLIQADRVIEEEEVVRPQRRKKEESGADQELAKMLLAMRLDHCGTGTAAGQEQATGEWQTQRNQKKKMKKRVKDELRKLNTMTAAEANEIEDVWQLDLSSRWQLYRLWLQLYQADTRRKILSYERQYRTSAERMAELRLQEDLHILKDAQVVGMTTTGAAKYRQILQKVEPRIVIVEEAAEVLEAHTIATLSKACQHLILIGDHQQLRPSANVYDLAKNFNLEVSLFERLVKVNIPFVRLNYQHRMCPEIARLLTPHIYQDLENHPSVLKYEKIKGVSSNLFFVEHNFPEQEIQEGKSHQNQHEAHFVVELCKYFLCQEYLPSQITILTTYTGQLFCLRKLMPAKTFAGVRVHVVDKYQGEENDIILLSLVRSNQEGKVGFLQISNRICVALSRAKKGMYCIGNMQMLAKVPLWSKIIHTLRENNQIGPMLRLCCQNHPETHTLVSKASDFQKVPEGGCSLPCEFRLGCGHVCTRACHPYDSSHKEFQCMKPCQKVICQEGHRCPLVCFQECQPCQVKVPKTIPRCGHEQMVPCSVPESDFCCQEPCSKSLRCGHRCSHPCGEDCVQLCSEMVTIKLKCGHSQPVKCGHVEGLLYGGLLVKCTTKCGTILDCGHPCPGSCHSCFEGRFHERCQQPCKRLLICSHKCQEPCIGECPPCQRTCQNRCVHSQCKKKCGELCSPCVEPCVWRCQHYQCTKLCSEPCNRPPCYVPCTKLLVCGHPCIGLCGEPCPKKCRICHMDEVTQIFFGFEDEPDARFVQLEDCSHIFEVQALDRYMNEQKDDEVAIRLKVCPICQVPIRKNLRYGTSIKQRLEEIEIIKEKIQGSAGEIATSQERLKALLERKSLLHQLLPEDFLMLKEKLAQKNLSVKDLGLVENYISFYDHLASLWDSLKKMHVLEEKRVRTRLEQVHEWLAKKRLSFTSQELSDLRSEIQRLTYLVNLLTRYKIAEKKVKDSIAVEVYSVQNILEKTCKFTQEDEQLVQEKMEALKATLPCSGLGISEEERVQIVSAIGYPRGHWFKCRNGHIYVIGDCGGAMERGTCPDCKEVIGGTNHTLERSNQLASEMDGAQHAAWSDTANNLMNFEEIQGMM
# UniProt Q9NQ88: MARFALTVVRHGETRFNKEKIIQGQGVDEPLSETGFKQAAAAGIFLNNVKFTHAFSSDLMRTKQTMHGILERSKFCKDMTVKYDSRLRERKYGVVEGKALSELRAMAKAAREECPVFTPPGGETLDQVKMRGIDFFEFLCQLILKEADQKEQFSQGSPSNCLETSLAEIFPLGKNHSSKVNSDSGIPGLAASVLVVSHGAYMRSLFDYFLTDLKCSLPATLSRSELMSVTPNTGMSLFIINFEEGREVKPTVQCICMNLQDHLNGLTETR
# UniProt Q9NQ66: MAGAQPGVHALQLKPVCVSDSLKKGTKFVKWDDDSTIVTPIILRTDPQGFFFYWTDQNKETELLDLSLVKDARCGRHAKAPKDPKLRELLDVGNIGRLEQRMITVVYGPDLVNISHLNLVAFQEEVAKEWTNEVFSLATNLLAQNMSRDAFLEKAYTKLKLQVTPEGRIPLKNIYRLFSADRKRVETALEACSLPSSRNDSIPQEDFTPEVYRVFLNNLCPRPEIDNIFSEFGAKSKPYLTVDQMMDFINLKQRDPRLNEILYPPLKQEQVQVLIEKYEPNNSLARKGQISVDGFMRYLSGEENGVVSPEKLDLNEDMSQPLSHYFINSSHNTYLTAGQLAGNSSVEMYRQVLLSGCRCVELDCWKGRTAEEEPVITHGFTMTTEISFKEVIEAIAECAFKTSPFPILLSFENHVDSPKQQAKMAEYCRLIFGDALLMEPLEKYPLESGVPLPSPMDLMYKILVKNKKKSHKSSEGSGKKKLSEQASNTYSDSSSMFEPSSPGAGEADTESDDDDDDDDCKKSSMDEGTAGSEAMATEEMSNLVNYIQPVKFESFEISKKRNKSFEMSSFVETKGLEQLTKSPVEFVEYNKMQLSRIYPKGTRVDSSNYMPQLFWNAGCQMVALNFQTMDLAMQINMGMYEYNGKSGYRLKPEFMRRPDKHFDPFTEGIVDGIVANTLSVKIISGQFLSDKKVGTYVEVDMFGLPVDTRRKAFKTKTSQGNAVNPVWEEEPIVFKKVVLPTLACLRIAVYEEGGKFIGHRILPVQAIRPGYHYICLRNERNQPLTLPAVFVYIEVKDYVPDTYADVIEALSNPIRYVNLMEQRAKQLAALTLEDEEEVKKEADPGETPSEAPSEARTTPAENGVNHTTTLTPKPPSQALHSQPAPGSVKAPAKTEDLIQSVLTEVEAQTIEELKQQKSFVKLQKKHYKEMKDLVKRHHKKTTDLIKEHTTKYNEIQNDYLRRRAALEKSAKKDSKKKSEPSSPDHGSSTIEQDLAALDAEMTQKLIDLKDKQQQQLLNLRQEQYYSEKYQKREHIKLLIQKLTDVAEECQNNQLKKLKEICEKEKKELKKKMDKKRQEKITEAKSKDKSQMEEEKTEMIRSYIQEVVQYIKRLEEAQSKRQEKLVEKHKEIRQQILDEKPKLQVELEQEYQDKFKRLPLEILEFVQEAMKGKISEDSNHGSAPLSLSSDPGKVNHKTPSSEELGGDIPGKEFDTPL
# UniProt Q9P2A4: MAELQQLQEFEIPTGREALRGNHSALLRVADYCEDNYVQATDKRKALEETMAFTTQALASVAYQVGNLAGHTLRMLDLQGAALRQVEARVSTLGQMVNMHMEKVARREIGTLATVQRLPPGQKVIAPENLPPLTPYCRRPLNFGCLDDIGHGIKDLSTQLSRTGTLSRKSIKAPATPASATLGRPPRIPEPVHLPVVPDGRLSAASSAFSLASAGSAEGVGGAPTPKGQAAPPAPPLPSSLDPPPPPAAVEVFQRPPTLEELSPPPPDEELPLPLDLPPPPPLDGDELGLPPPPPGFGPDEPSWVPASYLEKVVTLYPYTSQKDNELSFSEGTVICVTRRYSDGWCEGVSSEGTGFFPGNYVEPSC
# UniProt Q9NWZ8: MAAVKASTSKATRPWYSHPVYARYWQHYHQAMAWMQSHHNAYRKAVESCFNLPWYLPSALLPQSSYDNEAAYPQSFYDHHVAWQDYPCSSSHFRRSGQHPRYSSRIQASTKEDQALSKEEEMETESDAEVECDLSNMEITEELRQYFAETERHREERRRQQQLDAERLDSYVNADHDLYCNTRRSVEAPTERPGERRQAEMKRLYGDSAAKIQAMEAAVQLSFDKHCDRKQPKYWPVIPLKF
# UniProt Q9NWV8, whole entry: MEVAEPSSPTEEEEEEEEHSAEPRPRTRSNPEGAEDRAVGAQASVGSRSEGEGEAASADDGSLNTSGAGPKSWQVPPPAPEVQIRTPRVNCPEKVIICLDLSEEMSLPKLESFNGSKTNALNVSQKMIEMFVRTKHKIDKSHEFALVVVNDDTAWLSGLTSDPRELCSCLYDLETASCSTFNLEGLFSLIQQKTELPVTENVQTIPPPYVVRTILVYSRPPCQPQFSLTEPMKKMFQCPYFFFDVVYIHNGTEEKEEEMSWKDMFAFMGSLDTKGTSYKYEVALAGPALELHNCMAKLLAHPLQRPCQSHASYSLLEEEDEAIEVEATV
# UniProt Q9NVT9: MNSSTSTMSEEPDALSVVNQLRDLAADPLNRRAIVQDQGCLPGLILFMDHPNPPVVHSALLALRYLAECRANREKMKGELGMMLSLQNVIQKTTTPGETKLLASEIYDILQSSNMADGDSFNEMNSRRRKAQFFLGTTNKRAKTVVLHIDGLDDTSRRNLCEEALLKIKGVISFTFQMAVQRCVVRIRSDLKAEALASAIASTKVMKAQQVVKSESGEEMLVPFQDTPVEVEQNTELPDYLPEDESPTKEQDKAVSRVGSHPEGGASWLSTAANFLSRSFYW
# UniProt Q9P2W1: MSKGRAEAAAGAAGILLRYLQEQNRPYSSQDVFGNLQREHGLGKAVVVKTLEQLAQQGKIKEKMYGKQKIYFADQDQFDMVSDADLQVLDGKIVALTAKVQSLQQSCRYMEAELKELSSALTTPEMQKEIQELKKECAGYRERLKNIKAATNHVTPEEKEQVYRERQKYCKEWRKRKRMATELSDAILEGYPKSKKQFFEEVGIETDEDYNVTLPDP
# UniProt Q9NW13: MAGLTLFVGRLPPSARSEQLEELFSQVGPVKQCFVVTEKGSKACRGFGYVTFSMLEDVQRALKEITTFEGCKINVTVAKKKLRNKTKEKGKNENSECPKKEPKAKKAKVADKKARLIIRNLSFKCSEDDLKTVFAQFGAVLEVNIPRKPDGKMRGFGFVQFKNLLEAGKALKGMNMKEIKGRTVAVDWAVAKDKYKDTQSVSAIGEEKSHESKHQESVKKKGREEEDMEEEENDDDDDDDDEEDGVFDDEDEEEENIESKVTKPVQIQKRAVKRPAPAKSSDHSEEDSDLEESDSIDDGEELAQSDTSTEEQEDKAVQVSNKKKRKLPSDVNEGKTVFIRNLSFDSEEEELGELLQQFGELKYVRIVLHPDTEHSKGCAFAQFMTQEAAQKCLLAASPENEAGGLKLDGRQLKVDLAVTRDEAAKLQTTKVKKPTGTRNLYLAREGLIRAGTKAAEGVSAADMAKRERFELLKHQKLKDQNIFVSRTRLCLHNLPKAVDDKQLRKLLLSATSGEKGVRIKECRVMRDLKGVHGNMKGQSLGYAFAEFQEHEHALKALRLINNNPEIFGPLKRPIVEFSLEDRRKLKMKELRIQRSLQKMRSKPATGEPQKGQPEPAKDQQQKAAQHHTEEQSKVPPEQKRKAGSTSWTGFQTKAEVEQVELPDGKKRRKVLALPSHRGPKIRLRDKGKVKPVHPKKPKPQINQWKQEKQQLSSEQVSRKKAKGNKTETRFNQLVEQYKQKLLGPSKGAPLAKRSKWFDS
# UniProt Q9NVH2, whole entry: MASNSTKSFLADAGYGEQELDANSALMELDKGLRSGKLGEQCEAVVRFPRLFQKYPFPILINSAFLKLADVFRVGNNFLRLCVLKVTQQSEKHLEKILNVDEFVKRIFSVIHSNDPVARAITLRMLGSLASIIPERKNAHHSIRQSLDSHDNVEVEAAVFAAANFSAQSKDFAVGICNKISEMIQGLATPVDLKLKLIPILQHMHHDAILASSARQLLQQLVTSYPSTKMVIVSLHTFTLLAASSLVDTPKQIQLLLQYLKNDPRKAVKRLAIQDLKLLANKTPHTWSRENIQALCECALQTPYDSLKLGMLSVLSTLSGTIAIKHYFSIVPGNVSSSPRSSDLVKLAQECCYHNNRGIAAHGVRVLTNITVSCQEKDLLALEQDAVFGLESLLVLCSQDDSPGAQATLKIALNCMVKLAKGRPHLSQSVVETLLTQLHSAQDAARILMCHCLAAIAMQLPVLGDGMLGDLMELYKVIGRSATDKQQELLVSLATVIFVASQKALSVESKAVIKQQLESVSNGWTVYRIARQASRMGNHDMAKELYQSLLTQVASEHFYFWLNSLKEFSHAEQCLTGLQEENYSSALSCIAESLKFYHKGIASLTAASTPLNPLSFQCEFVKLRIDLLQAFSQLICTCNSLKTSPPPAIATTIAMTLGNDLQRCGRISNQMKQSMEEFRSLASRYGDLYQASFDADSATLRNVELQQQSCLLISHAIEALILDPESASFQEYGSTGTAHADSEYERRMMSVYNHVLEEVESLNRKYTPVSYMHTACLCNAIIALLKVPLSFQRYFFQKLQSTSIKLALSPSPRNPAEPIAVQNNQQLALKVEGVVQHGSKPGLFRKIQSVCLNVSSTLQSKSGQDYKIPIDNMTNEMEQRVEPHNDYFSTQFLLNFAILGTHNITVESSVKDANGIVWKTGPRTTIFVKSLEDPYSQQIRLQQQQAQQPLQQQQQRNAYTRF
# Compound: Nc1ncnc2c1ncn2[C@@H]1O[C@H](COP(=O)(O)OP(=O)(O)NP(=O)(O)O)[C@@H](O)[C@H]1O [adenylyl imidodiphosphate]
# Assay: NP40-soluble protein abundance relative to vehicle (solubility fold change) (ratio); higher = more soluble protein in presence of AMP-PNP
# Procedure, shortened: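 Jurkat crude lysate prepared with a Dounce homogeniser was treated at eight concentrations spanning 0.1 to 10 mM, 10 min at room temperature then 3 min at 37 °C. Solubilisation with 0.8% NP40 and benzonase and ultracentrifugation preceded TMT labelling of the supernatant for LC-MS/MS. Fold change against the detergent-processed vehicle was determined per replicate from vsn-normalised intensities, across three independent experiments.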
Target,NP40-soluble protein abundance (concentration: 1mM),NP40-soluble protein abundance (concentration: 2mM),NP40-soluble protein abundance (concentration: 4mM),NP40-soluble protein abundance (concentration: 6mM),NP40-soluble protein abundance (concentration: 8mM),NP40-soluble protein abundance (concentration: 10mM)
ZNFX1 (UniProt Q9P2E3),1.01 ± 0.022,0.985 ± 0.041,0.976 ± 0.022,0.9802 ± 0.0043,0.984 ± 0.011,0.9717 ± 0.0071
BAZ1A (UniProt Q9NRL2),1.06 ± 0.031,1.09 ± 0.024,1.1 ± 0.026,1.142 ± 0.0034,1.131 ± 0.0057,1.174 ± 0.0098
GSKIP (UniProt Q9P0R6),0.957 ± 0.014,1.01 ± 0.046,0.99 ± 0.024,0.961 ± 0.02,0.9375 ± 0.0089,0.8932 ± 0.0059
UniProt Q9UBP0 and related entries,1.09 ± 0.08,1.04 ± 0.043,1.04 ± 0.056,1.04 ± 0.055,1.04 ± 0.054,1.02 ± 0.064
UTP6 (UniProt Q9NYH9),0.951 ± 0.048,0.904 ± 0.012,0.963 ± 0.035,0.989 ± 0.071,1.04 ± 0.13,0.964 ± 0.016
MRPL16 (UniProt Q9NX20),1.02 ± 0.031,0.996 ± 0.06,1 ± 0.06,1.02 ± 0.12,0.994 ± 0.098,1.01 ± 0.13
UniProt Q9NQ88,1.03 ± 0.023,1.01 ± 0.03,1 ± 0.039,1.03 ± 0.034,1.03 ± 0.025,1.03 ± 0.051
RMND1 (UniProt Q9NWS8),0.97 ± 0.042,0.971 ± 0.051,0.955 ± 0.05,0.955 ± 0.034,0.963 ± 0.058,0.954 ± 0.062
UniProt Q9P035 and related entries,0.913 ± 0.038,0.855 ± 0.082,0.9571 ± 0.0078,1.01 ± 0.087,1.03 ± 0.071,1.03 ± 0.03
THYN1 (UniProt Q9P016),1.05 ± 0.036,1.13 ± 0.065,1.1 ± 0.069,1.16 ± 0.035,1.18 ± 0.013,1.17 ± 0.055
UniProt Q9P287 and related entries,1.02 ± 0.016,1.009 ± 0.0091,1.03 ± 0.038,1.03 ± 0.042,1.02 ± 0.054,1.03 ± 0.056
UniProt Q9NQ66 and related entries,1.02 ± 0.04,1.03 ± 0.019,1.07 ± 0.041,1.017 ± 0.0059,1.04 ± 0.011,1.07 ± 0.028
THG1L (UniProt Q9NWX6),1 ± 0.025,0.991 ± 0.033,1 ± 0.048,0.9818 ± 0.0056,0.9903 ± 0.0031,0.993 ± 0.021
UniProt Q9NYP7 and related entries,0.961 ± 0.05,0.893 ± 0.041,0.952 ± 0.043,0.947 ± 0.059,0.969 ± 0.074,0.939 ± 0.018
UniProt Q9P107 and related entries,1.02 ± 0.019,1.09 ± 0.11,1.04 ± 0.025,0.999 ± 0.022,0.965 ± 0.018,0.996 ± 0.035
UniProt Q9P1Y5 and related entries,0.968 ± 0.029,0.966 ± 0.068,0.935 ± 0.065,0.943 ± 0.058,0.96 ± 0.041,0.925 ± 0.066
UniProt Q9P2A4 and related entries,1.02 ± 0.049,1.044 ± 0.01,1.06 ± 0.034,1.02 ± 0.022,0.996 ± 0.031,1.02 ± 0.025
AASDHPPT (UniProt Q9NRN7),0.934 ± 0.065,0.889 ± 0.045,0.944 ± 0.034,0.988 ± 0.12,0.984 ± 0.12,0.957 ± 0.14
GEMIN8 (UniProt Q9NWZ8),0.959 ± 0.016,0.9461 ± 0.0079,0.952 ± 0.044,0.918 ± 0.039,0.944 ± 0.055,0.906 ± 0.021
ABHD10 (UniProt Q9NUJ1),0.962 ± 0.017,0.927 ± 0.063,0.934 ± 0.043,1.02 ± 0.028,0.989 ± 0.016,0.997 ± 0.039

# Part of the list above, tab-delimited:
Target	NP40-soluble protein abundance (concentration: 1mM)	NP40-soluble protein abundance (concentration: 2mM)	NP40-soluble protein abundance (concentration: 4mM)	NP40-soluble protein abundance (concentration: 6mM)	NP40-soluble protein abundance (concentration: 8mM)	NP40-soluble protein abundance (concentration: 10mM)
UniProt Q9P1Y5 and related entries	0.968 ± 0.029	0.966 ± 0.068	0.935 ± 0.065	0.943 ± 0.058	0.96 ± 0.041	0.925 ± 0.066
UniProt Q9P2A4 and related entries	1.02 ± 0.049	1.044 ± 0.01	1.06 ± 0.034	1.02 ± 0.022	0.996 ± 0.031	1.02 ± 0.025
AASDHPPT (UniProt Q9NRN7)	0.934 ± 0.065	0.889 ± 0.045	0.944 ± 0.034	0.988 ± 0.12	0.984 ± 0.12	0.957 ± 0.14

# (next part)

Target,NP40-soluble protein abundance (concentration: 1mM),NP40-soluble protein abundance (concentration: 2mM),NP40-soluble protein abundance (concentration: 4mM),NP40-soluble protein abundance (concentration: 6mM),NP40-soluble protein abundance (concentration: 8mM),NP40-soluble protein abundance (concentration: 10mM)
UniProt Q9NWY4,1.05 ± 0.021,1.06 ± 0.04,1.06 ± 0.041,0.998 ± 0.032,1.03 ± 0.046,1.04 ± 0.06
UniProt Q9NVM9,1.03 ± 0.027,1.02 ± 0.04,1.05 ± 0.033,1.02 ± 0.069,1.03 ± 0.075,1.03 ± 0.063
UniProt Q9NWR8,1.009 ± 0.0068,1 ± 0.043,1.01 ± 0.034,0.998 ± 0.036,1.008 ± 0.0018,1.01 ± 0.031
UniProt Q9NWV8,0.974 ± 0.011,0.97 ± 0.037,0.972 ± 0.039,0.958 ± 0.016,0.943 ± 0.055,0.983 ± 0.061
UniProt Q9P032,0.976 ± 0.082,1.03 ± 0.052,0.945 ± 0.09,0.921 ± 0.039,0.924 ± 0.041,0.89 ± 0.046
IRAK4 (UniProt Q9NWZ3),1.01 ± 0.041,0.975 ± 0.076,0.977 ± 0.046,0.986 ± 0.056,0.969 ± 0.071,0.96 ± 0.094
UniProt Q9NYV4 and related entries,1.05 ± 0.015,1.09 ± 0.017,1.064 ± 0.0043,1.08 ± 0.038,1.07 ± 0.045,1.11 ± 0.04
UniProt Q9NSG2 and related entries,0.991 ± 0.028,0.991 ± 0.015,0.993 ± 0.011,0.955 ± 0.022,0.964 ± 0.031,0.968 ± 0.015
UniProt Q9NRX1 and related entries,1 ± 0.057,1 ± 0.035,1.01 ± 0.011,1.03 ± 0.011,1.072 ± 0.01,1.12 ± 0.033
UniProt Q9NZL4 and related entries,0.963 ± 0.018,0.953 ± 0.02,0.979 ± 0.016,0.974 ± 0.042,0.994 ± 0.031,0.934 ± 0.051
UniProt Q9NQG7 and related entries,1.04 ± 0.058,1.06 ± 0.088,1.05 ± 0.048,1.02 ± 0.011,1.03 ± 0.097,1.02 ± 0.06
SACS (UniProt Q9NZJ4),0.964 ± 0.031,0.922 ± 0.053,0.986 ± 0.025,0.923 ± 0.043,0.95 ± 0.037,0.922 ± 0.061
UniProt Q9NY12 and related entries,0.986 ± 0.018,0.995 ± 0.017,1.03 ± 0.02,1.13 ± 0.032,1.19 ± 0.017,1.23 ± 0.069
UniProt Q9P260 and related entries,1 ± 0.017,0.98 ± 0.025,0.989 ± 0.02,0.986 ± 0.011,0.9709 ± 0.0089,0.951 ± 0.025
ASF1B (UniProt Q9NVP2),0.925 ± 0.039,0.902 ± 0.011,0.927 ± 0.019,0.921 ± 0.053,0.96 ± 0.023,0.918 ± 0.041
GRHPR (UniProt Q9UBQ7),0.992 ± 0.048,0.927 ± 0.048,0.987 ± 0.011,1 ± 0.086,1.01 ± 0.056,0.974 ± 0.034
EXOSC5 (UniProt Q9NQT4),1.019 ± 0.0097,1.06 ± 0.046,1.08 ± 0.029,1.14 ± 0.045,1.14 ± 0.087,1.19 ± 0.11
UniProt Q9P2K3-3|Q9P2K3-4,0.993 ± 0.05,1.03 ± 0.045,0.985 ± 0.047,1 ± 0.066,0.982 ± 0.034,1.01 ± 0.062
ARMC1 (UniProt Q9NVT9),0.998 ± 0.039,1.03 ± 0.077,0.984 ± 0.032,1.03 ± 0.079,1.03 ± 0.068,1.04 ± 0.094
CCDC88C (UniProt Q9P219),0.974 ± 0.012,1.02 ± 0.02,1.01 ± 0.079,0.971 ± 0.11,0.88 ± 0.016,0.897 ± 0.055

Target,NP40-soluble protein abundance (concentration: 1mM),NP40-soluble protein abundance (concentration: 2mM),NP40-soluble protein abundance (concentration: 4mM),NP40-soluble protein abundance (concentration: 6mM),NP40-soluble protein abundance (concentration: 8mM),NP40-soluble protein abundance (concentration: 10mM)
UniProt Q9NTX5 and related entries,0.9542 ± 0.0058,0.953 ± 0.042,0.976 ± 0.012,0.951 ± 0.036,0.939 ± 0.031,0.95 ± 0.04
UniProt Q9NSC5 and related entries,0.985 ± 0.058,1.01 ± 0.031,1.02 ± 0.034,0.995 ± 0.042,0.99 ± 0.053,1.01 ± 0.089
UniProt Q9UBK8 and related entries,0.928 ± 0.02,0.881 ± 0.038,0.916 ± 0.041,0.971 ± 0.031,0.94 ± 0.051,0.964 ± 0.049
KIF15 (UniProt Q9NS87),1.02 ± 0.017,1.04 ± 0.016,1.0173 ± 0.00066,0.983 ± 0.035,0.963 ± 0.015,0.977 ± 0.026
HINT3 (UniProt Q9NQE9),1.02 ± 0.015,1.01 ± 0.024,1.01 ± 0.03,0.983 ± 0.029,0.986 ± 0.032,0.962 ± 0.029
UniProt Q9NSB8 and related entries,0.998 ± 0.0067,1.01 ± 0.065,0.999 ± 0.038,1.01 ± 0.033,1.01 ± 0.016,1.06 ± 0.036
PSMC3IP (UniProt Q9P2W1),1.02 ± 0.025,1.06 ± 0.063,0.992 ± 0.03,1 ± 0.03,1 ± 0.021,0.988 ± 0.068
UniProt Q9P0U4 and related entries,0.965 ± 0.028,0.997 ± 0.025,1.005 ± 0.0053,1.01 ± 0.039,1.021 ± 0.0081,1.02 ± 0.025
UniProt Q9P2N6-3|Q9P2N6,1.02 ± 0.051,1.07 ± 0.021,1.06 ± 0.018,1.055 ± 0.0081,1.03 ± 0.029,1.09 ± 0.026
RBM28 (UniProt Q9NW13),1.05 ± 0.03,1.08 ± 0.016,1.08 ± 0.016,1.12 ± 0.017,1.12 ± 0.028,1.16 ± 0.038
UniProt Q9NRY4,0.9859 ± 0.0086,0.971 ± 0.035,0.999 ± 0.028,0.984 ± 0.03,0.964 ± 0.036,0.935 ± 0.024
UniProt Q9NVH2 and related entries,0.997 ± 0.028,0.956 ± 0.059,1.03 ± 0.023,1.05 ± 0.036,1.06 ± 0.062,1.07 ± 0.063
SIPA1L2 (UniProt Q9P2F8),0.994 ± 0.067,1.029 ± 0.0026,0.967 ± 0.029,0.962 ± 0.12,0.9293 ± 0.002,0.912 ± 0.064
ARGLU1 (UniProt Q9NWB6),1.06 ± 0.045,1.13 ± 0.049,1.1 ± 0.043,1.15 ± 0.04,1.16 ± 0.021,1.3 ± 0.11
CISD1 (UniProt Q9NZ45),1 ± 0.047,1.04 ± 0.046,1 ± 0.04,0.992 ± 0.039,1.02 ± 0.0018,0.968 ± 0.051
CWC15 (UniProt Q9P013),1.04 ± 0.037,1.12 ± 0.079,1.037 ± 0.0085,1.07 ± 0.034,1.06 ± 0.04,1.09 ± 0.021
ZBTB40 (UniProt Q9NUA8),0.995 ± 0.032,0.951 ± 0.017,0.941 ± 0.015,0.914 ± 0.036,0.904 ± 0.018,0.918 ± 0.026
UniProt Q9NQ29 and related entries,1.02 ± 0.04,1.13 ± 0.12,1.11 ± 0.055,1.15 ± 0.027,1.15 ± 0.091,1.35 ± 0.098
UniProt Q9NSY1,1.026 ± 0.003,1.03 ± 0.023,1.03 ± 0.018,1.05 ± 0.027,1.05 ± 0.02,1.09 ± 0.02
UniProt Q9NZN8 and related entries,0.97 ± 0.034,1.05 ± 0.034,1.034 ± 0.01,1.07 ± 0.12,1.02 ± 0.095,1.1 ± 0.1

# Reference: the supplement of paper PMC6411743
